# Measured values reported in article doi:10.1101/2025.08.26.672471.
# T1: collagen receptor DDR2 (mouse (endogenous in MB49)) (UniProt Q62371)
# T1 sequence: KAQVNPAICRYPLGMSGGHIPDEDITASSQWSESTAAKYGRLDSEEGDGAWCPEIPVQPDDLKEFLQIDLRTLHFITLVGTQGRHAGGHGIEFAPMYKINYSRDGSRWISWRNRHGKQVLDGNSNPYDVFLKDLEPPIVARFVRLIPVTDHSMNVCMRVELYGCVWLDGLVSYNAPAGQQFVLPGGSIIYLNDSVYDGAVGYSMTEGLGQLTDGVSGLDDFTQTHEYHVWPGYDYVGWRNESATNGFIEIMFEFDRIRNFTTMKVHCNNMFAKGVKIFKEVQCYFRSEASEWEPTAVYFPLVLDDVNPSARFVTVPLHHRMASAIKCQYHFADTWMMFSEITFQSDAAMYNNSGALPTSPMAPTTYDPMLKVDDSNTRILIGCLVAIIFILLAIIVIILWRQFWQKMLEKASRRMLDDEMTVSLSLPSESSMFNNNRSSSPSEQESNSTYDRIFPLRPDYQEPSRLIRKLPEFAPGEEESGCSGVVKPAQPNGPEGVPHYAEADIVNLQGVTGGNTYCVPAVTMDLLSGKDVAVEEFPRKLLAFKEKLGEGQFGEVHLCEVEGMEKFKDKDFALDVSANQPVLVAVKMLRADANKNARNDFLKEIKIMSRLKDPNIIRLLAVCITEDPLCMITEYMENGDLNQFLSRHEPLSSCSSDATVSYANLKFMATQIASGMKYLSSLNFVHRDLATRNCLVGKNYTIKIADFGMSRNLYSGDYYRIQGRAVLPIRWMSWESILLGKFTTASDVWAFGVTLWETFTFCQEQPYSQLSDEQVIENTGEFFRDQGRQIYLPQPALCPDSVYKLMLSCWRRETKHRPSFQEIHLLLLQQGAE
# Molecular target: T1, collagen receptor DDR2 (mouse (endogenous in MB49))
# Assay: affinity purification with mass spectrometry
row,Binder,binding
1,"Mdh2 (enzyme, UniProt P08249 25-338) AKVAVLGASGGIGQPLSLLLKNSPLVSRLTLYDIAHTPGVAADLSHIETRANVKGYLGPEQLPDCLKGCDVVVIPAGVPRKPGMTRDDLFNTNATIVATLTAACAQHCPEAMVCIIANPVNSTIPITAEVFKKHGVYNPNKIFGVTTLDIVRANTFVAELKGLDPARVNVPVIGGHAGKTIIPLISQCTPKVDFPQDQLATLTGRIQEAGTEVVKAKAGAGSATLSMAYAGARFVFSLVDAMNGKEGVVECSFVQSKETECTYFSTPLLLGKKGLEKNLGIGKITPFEEKMIAEAIPELKASIKKGEDFVKNMK",binds
2,"Pgam1 (enzyme, UniProt Q9DBJ1 1-254) MAAYKLVLIRHGESAWNLENRFSGWYDADLSPAGHEEAKRGGQALRDAGYEFDICFTSVQKRAIRTLWTVLDAIDQMWLPVVRTWRLNERHYGGLTGLNKAETAAKHGEAQVKIWRRSYDVPPPPMEPDHPFYSNISKDRRYADLTEDQLPSCESLKDTIARALPFWNEEIVPQIKEGKRVLIAAHGNSLRGIVKHLEGLSEEAIMELNLPTGIPIVYELDKNLKPIKPMQFLGDEETVRKAMEAVAAQGKVKK",binds
3,"G6pc1 (enzyme, UniProt P35576 1-357) MEEGMNILHDFGIQSTRYLQVNYQDSQDWFILVSVIADLRNAFYVLFPIWFHLKETVGINLLWVAVVGDWFNLVFKWILFGQRPYWWVLDTDYYSNSSVPIIKQFPVTCETGPGSPSGHAMGAAGVYYVMVTSTLAIFRGKKKPTYGFRCLNVILWLGFWAVQLNVCLSRIYLAAHFPHQVVAGVLSGIAVAETFSHIRGIYNASLRKYCLITIFLFGFALGFYLLLKGLGVDLLWTLEKAKRWCERPEWVHLDTTPFASLFKNLGTLLGLGLALNSSMYRKSCKGELSKLLPFRFACIVASLVLLHLFDSLKPPSQVELIFYILSFCKSATVPFASVSLIPYCLARILGQTHKKSL",binds

# These are yes or no findings as the source states them, for the method shown. Binding seen in cells or lysates may run through a third protein. A yes stands for co-enrichment or nearness to the bait. Other partners may have been found.
